Experimental data published in article PMC12412890.
No constants are given. Whether binding was seen depends on the method and setting. In cells and extracts the contact can be indirect. Some results given as binding are weak or reduced against the parent protein; the word gives no strength.

Amino acid sequences for entries named in this document (tags omitted).
UniProt P57073: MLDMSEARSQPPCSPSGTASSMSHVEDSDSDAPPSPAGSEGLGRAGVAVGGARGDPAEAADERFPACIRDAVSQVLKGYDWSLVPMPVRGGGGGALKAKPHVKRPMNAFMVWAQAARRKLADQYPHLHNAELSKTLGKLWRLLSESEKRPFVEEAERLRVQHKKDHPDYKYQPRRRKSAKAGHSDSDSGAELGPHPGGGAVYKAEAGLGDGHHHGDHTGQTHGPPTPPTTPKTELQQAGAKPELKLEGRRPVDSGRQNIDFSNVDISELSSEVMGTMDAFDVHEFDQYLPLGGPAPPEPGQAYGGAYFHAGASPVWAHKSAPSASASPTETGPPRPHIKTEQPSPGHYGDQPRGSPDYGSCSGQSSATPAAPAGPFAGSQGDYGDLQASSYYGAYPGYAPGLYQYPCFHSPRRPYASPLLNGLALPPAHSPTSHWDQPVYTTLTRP
UniProt Q14258: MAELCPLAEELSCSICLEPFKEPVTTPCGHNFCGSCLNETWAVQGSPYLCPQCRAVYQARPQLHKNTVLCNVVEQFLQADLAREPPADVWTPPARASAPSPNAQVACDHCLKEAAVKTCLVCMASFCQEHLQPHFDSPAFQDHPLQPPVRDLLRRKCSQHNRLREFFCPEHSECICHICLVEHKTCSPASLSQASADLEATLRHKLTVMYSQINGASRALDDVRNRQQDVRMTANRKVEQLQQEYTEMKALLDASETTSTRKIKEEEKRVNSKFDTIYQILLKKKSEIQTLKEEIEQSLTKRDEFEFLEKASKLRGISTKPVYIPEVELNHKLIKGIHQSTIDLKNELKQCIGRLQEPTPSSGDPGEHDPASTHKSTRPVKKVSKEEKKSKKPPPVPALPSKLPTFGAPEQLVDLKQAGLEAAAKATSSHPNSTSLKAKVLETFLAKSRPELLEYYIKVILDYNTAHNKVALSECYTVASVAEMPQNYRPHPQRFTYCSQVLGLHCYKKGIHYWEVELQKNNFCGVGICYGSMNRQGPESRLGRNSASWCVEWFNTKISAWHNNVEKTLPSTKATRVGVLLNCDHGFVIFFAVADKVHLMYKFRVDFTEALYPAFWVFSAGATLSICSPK

Target: SOX8 (human (endogenous in ligament fibroblasts from patients)) (UniProt P57073)
Assay: co-IP; endogenous proteins in ligament fibroblast lysates; SOX8, TRIM25 or IgG antibodies 1 h at room temperature, then Protein A + G magnetic beads overnight at 4°C; Western blot

TRIM25 (from UniProt Q14258 1-630) (enzyme)
binding: binds
